Test results published in publication PMC4339652.
Changes are numbered by the printed parent chain. No constants are given. Whether binding was seen depends on the method and setting.

Amino acid sequences for entries named in this document (tags omitted). Residues count along the entry.
UniProt P0A855, residues 22-430: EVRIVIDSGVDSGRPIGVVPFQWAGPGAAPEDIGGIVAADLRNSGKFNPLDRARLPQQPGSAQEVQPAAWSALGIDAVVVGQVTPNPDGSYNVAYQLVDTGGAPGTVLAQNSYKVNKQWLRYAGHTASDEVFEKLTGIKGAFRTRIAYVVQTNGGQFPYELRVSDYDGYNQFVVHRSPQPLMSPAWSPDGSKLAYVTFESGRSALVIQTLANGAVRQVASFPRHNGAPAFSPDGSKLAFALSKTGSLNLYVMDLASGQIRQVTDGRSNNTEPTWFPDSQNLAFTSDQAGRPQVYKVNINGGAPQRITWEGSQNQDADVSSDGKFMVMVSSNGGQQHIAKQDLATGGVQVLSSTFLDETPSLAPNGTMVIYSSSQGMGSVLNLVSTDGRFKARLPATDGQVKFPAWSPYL

Legend:
TolAIII D418P (E. coli) = target: T1, TolAIII D418P (E. coli) (UniProt P19934); assay: SPR; TolAIII WT, D418P or K420P amine-coupled to CM5; TolB 10 µM in HEPES-EP injected at 10 µl/min for 180 s; blank surface subtracted; both purified
T1 sequence: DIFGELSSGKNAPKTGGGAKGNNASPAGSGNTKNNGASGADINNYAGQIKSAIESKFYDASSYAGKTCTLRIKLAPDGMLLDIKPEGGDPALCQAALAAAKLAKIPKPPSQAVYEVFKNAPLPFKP

TolAIII K420P (E. coli) = target: T2, TolAIII K420P (E. coli) (UniProt P19934); assay: as above
T2 sequence: T1 sequence with P123D, K125P

binding (TolAIII D418P (E. coli)): no binding (tested: 10 µM) | binding (TolAIII K420P (E. coli)): no binding (tested: 10 µM)
Substance: TolB, wild type (from UniProt P0A855 22-430)
